Experimental findings from article PMC7660922 are described below.

Results are given in words; binding and its absence hold for the method and conditions named. Binding seen in cells or lysates may run through a third protein. Binding calls can cover weak binding; strength is not graded here. For part of these data: Sequences can lack the tags named with a protein.

The target of test [1] is T1, CycB3-PrA (Drosophila) (UniProt Q9I7I0).
T1 sequence: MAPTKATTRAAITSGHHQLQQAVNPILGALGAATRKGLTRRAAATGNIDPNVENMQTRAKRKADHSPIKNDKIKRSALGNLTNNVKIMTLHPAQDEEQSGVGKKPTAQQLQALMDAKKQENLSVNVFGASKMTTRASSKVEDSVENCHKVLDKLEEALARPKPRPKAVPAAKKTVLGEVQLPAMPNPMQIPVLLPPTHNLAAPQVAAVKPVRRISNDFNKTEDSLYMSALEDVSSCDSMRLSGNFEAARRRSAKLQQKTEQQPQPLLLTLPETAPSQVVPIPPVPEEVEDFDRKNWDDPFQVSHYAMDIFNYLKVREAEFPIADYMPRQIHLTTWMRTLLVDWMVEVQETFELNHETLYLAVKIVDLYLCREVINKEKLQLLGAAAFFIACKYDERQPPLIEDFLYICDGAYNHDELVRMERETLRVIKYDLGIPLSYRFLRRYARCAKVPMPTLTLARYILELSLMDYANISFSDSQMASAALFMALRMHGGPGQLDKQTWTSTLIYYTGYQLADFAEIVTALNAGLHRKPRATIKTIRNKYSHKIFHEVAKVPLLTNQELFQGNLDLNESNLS
In words: co-IP; Protein A affinity purification from lysates of co-transfected D-Mel cells on DynaBeads conjugated to rabbit IgG, 1 h at 4°C; lysis buffer 50 mM Tris-Cl pH 7.5, 150 mM NaCl, 0.5% Triton X-100; Western blot.

The target of test [2] is T2, CycB3-Myc (Drosophila) (UniProt Q9I7I0).
T2 sequence: T1 sequence
Description: co-IP; immunopurification with anti-Myc 9E10 and PrG-coupled magnetic beads from lysates of 0-2 h Drosophila embryos; Western blot.

Test [3] deals with GFP-APC6 (Drosophila). In words: co-IP; GFP affinity purification (GFP-trap nanobeads, 2 h) from lysates of early Drosophila embryos, with phosphatase inhibitors; Western blot.
The target in test [4] is GFP-APC3 (Drosophila). The test is described as above.

Consider Myc-APC2 (Drosophila), for which the binding entry in test [1] was “binds”. Consider GFP-APC6 (Drosophila), for which the binding result in test [2] is recorded as “binds”.

In the case of Myc-APC3 (Drosophila), the binding result in test [1] is recorded as “binds”.

With GFP-APC3 (Drosophila), the binding entry in test [2] was “binds”.

B1: endogenous CycB3 (protein, UniProt Q9I7I0 1-575)
chain: T1 sequence
B1: the binding result in test [3] and in test [4] was “binds” each time.
